Source: the supplement of paper PMC10338343
± gives the standard deviation. The list shows a part of the results, in another mix than the full data. The uncertainty is large for many entries.

The sequences below were run on MIWI (PIWIL1) piRISC loaded with Kctd7 piRNA (30 nt) (assay: pre-steady-state target cleavage rate (min^-1); MIWI and MILI are mouse PIWI proteins and EfPiwi is from a freshwater sponge; tags in brackets are library labels; higher = faster piRNA-guided slicing of the target). Details: guide: Kctd7 piRNA 5'p-UGUUAAUCUCUCAGAGAAGGUGACAGUGAU; auxiliary factor: 500 nM mouse GTSF1.
Summary of the method: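 With or without 500 nM GTSF1 partner protein, 1 nM active affinity-purified piRISC carrying one synthetic guide was mixed with 0.1 nM transcribed, DNA-blocked target RNA library in HEPES–potassium acetate buffer at 33 °C for 0–8 or 0–960 min. Uncleaved targets were sequenced and normalised to depth and to weakly complementary targets, three trials were pooled, and k3 was capped at 0.0001 min^-1. The pre-steady-state cleavage rate came from a burst-and-steady-state fit.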

Sequence	pre-steady-state target cleavage rate
UAGUGACAGUCCUUCUCUGAAGAUUAACA	0.000454 ± 0.013
UAGUGACACACCUUCUCUCUGAGAUUAAGA	0.00258 ± 0.0043
AUCACUGUCACCUUCUCUGACUCAUUUUGA	0.00216 ± 0.0036
UUCACUGUCAGGUUCUCUGAGAGAUAUUGA	0.00125 ± 0.0047
UAGUGACACACCUUCUCUGAGUCAUUAUGA	0.000324 ± 0.021
UAGUGACAGUGGAACUCUGAGAAUUAACA	0.000122 ± 0.037
UAGUGACUCACCUUCUCUGAGAGAAUAAGA	0.02 ± 0.0073
UAGUGACAGUGGUUCUCUGAGAGAUUAACA [g2:g18:cont:t1A]	0.00044 ± 0.0066
UAGUGACUCACCUUCUCUCUGAGAUUAAGA	0.000923 ± 0.0067
UAGUGACACACCUUCUCUGAGUCAUUUUGA	0.00057 ± 0.017
UUCACUGUCUGGUUCUCUGAGAGAUAUUGA	0.000379 ± 0.018
UAGUGACAGUGGAUCUCUGACUCAUUAACA	0.000199 ± 0.016
UAGUGACAGUGGAACUCUGAGAGUUUAUCA	0.000124 ± 0.039
UAGUGAGUCACCUUCUCUGACUGAUUAAGA	0.00114 ± 0.0079
UAGUGUGUCACCUUCUCUGAGACUAAUUGA [g9:g25:cont:t1A]	0.00126 ± 0.007
UAGUGACAGUCCUUCUCUGACUCAUUAUGA	0.000213 ± 0.01
UAGUGACAGUCCUUCUCUGAGAGAAUUACA	0.00128 ± 0.0064
UAGUGACUCACCUUGUCUGAGAGAUUUUGA	0.00081 ± 0.014
UAGUCAGUCACCAUCUCUGAGAGAUUAACA	0.706 ± 0.04
UAGUGACAGUCCUUCUGUGAGACAUUAACA	0.00151 ± 0.0052
UAGUGACACAGCUUCUCUGAGAGAUAUUGA	0.000693 ± 0.0061
UAGUGACAGUGCUUCUCUGACAGAUUAACA	0.00252 ± 0.0047
UACACUGUCACCUUUCUCUGAGAGAUUAACA	0.575 ± 0.029
UAGUCUGUCACCUUCUGACUCUCUAAUUGA [g15:g26:cont:t1A]	0.000574 ± 0.0086

Sequence	pre-steady-state target cleavage rate
AUCACUGUCACCUUCUCUGAGAGAUUAACA [g2:g30:cont:t1A]	0.734 ± 0.035
UAGUGACAGUGCAUCUGUGAGAGAUUAACA	0.000782 ± 0.0077
UAGUGACAGUGGAUCUCUGAGAGAUUAAUA	0.00015 ± 0.026
UACACUCUCACCAUCUCUGAGAGAUUAACA	0.406 ± 0.028
UAGUGACUCAGCUUCUCUGAGAGAUUUUGA	0.000645 ± 0.0087
UAGUGACAGACCUUCUGAGAGAGAUUUUGA	0.000132 ± 0.037
UUCACUGUCACCUUCUCUGUCUGAUUAACA	0.00388 ± 0.0041
AUCACUGUCACCUUCUCUCUCAGAUUAACA	0.00325 ± 0.0044
UAGACUGUCACCUUCUCACUCUCUAAUUGA [g14:g27:cont:t1A]	0.000333 ± 0.011
UAGACUCUCACCUUCUCUGAGAGAUUUUGA	0.0479 ± 0.011
UAGUGACAGUCCUUCUCUGAGUGAAUAACA	0.000368 ± 0.012
UAGUCUGUGUCCUUCUCUGAGAGAUUUUGA	0.00211 ± 0.0042
UUCACUGUACACCUUCUCUGAGAGAUUAACA	0.655 ± 0.033
UAGUGAGUCACCUUCAGUGAGAGAUUUUGA	0.0022 ± 0.0071
UAGUGUGUCAGGUUCUCUGAGAGAUUUUGA	0.00175 ± 0.0081
UAGUGUGUCACCUUCUCUGACUCAUUAUGA	0.000869 ± 0.014
UAGUGACAGACGAUCUCUGAGAGAUUAUGA	0.000176 ± 0.037
UACACUGUCACCUUCUCUGAGAGAUAUUGA [g6:g28:cont:t1A]	0.0488 ± 0.017
UAGUGUGUCACCUUCUCACAGAGAUUAAGA	0.0014 ± 0.0092
UUGACUGUCACCUUCUCUGAGACAUUAACA	0.0684 ± 0.0093
AUGACUGUCACCUUCUCUGAGAGAUUAACA	0.771 ± 0.037
UAGUGACUCACCUUCUCUGAGUGAUUUUGA	0.000866 ± 0.0084
UAGUGACAGUGGAUCUCUGAGCGAUUAACA	0.000242 ± 0.026
UAGUGACAGUGGAACUCUGAGACAUUAUCA	0.00108 ± 0.015

Copied from above (six entries):
Sequence	pre-steady-state target cleavage rate
UAGUGACAGUGCAUCUGUGAGAGAUUAACA	0.000782 ± 0.0077
UAGUGACAGUGGAUCUCUGAGAGAUUAAUA	0.00015 ± 0.026
UACACUCUCACCAUCUCUGAGAGAUUAACA	0.406 ± 0.028
UAGUGACUCAGCUUCUCUGAGAGAUUUUGA	0.000645 ± 0.0087
UAGUGACAGACCUUCUGAGAGAGAUUUUGA	0.000132 ± 0.037
UUCACUGUCACCUUCUCUGUCUGAUUAACA	0.00388 ± 0.0041

Later entries.

Sequence	pre-steady-state target cleavage rate
UAGACUGUCACCUUCUCUGACAGAUUAUGA	0.000597 ± 0.0067
UAGUGACAGACCUUCUCACAGAGAUUAACA	0.00132 ± 0.01
UAGUGACAGUGGAACUCUGAGUGUUUAACA	0.000518 ± 0.02
UAGUGACUGACCUUCUCUGAGAGAUAUUGA	0.000915 ± 0.0097
UAGUGACAGUGGAAGAGAGACACAUUAACA	0.000265 ± 0.025
UAGUGACAGUGCUUCUGAGAGAGAUUAACA	0.000291 ± 0.015
UAGUGACAGUCCUUCUCGUGAGAGAUUAACA	0.000937 ± 0.0096
UAGUGACAGUGGAAGACUGAGAGAUUCACA	0.000155 ± 0.043
UAGUGACUCACCUUCUCUGACUCAUUAACA	0.00155 ± 0.0054
UAGACUGUCACCUUCUCUCUCAGAUAUUGA	0.000268 ± 0.017
UAGAAUGUCACCUUCUCUGAGAGAUUAACA	0.652 ± 0.038
UAGUGACAGUGCUUCUCAGAGAGUUUAACA	0.00103 ± 0.0093
UAGUCUAGUCACCUUCUCUGAGAGAUUAACA	0.67 ± 0.035
UUCACUGUCACCAUUCUCUGAGAGAUUAACA	0.725 ± 0.029
UAGUGAGUCACCUUCUCUGAGACUAUAUGA	0.00163 ± 0.0059
UAGUGUGUGUCCUUCUCUGAGAGAUAUUGA	0.00237 ± 0.0046
UAGUGACAGUCCUUCUCUGAGAGAAUAUCA	0.000578 ± 0.0086
UAGUCUGUCACCAACUCUGAGAGAUAUUGA	0.000402 ± 0.011
UAGUGACAGUCCUUCUCUGACAGAUAAACA	0.000567 ± 0.0096
UAGUGAGUCACCUUCUCUGUCUGAUUAAGA	0.00159 ± 0.011
UAGUGUGUCACCUUCAGUGAGAGAUAUUGA	0.00269 ± 0.005
UAGUGACAGUCCUUCUCUGUGAGAAUAACA	0.000819 ± 0.0067
UAGUGACAGUCCUUCUCUGAGAGUAAAUGA	0.000152 ± 0.032
UACACUGUCACCUUCUCUGACUGAUUAAGA	0.00227 ± 0.0049

Sequence	pre-steady-state target cleavage rate
UAGUGACAGUGGAAGAGACAGAGAAAUACA	0.000108 ± 0.041
UACACUGUCACCAACUCUGAGAGAUUUUGA	0.00105 ± 0.011
UAGUCUGUCACCUUCUGUGACAGAUUAACA	0.00236 ± 0.0059
UAGUCUGUCACCUUCUCUGAGUCAUUAUGA	0.00142 ± 0.0046
UACACUGUCACCUUCUCUGACUCAUUAACA	0.004 ± 0.004
UACACUGUCACCUUCUGACUCUCUAAUUGA [g15:g28:cont:t1A]	0.0007 ± 0.015
UAGUGACUCACCUUCUCUGAGAGAAUAUGA	0.00356 ± 0.0045
UAGUGACAGACCUUCUCUGUGAGAUUAUGA	0.00111 ± 0.0081
UAGUGACAGACCUUCUCUGAGAGUUUAUGA	0.00125 ± 0.0069
UAGUGACAGACCUUCUCUGUGUGAUUAACA	0.00321 ± 0.0045
UAGUGACAGAGCUUCUCUCAGAGAUUAACA	0.0015 ± 0.0058
AUCACUCAGACCUUCUCUGAGAGAUUAACA	0.433 ± 0.024
UAGACUGUCACCAAGUCUGAGAGAUUUUGA	0.000371 ± 0.011
UAGACUGUCACCUUCUCUCAGUGAUUAACA	0.00243 ± 0.003
UAGUGUGUCACCAAGUCUGAGAGAUUAAGA	0.000328 ± 0.021
UACACUGUCACCUUGACUGAGAGAUAUUGA	0.00367 ± 0.0056
UAGUGUGUCACCUUCUCUCUGAGAUUAAGA	0.00301 ± 0.0051
UAGUGACAGUCCUUCUCUGAGAAUUAACA	0.00131 ± 0.0049
UAGUCUGAGUCCUUCUCUGAGAGAUUUUGA	0.0013 ± 0.0054
AACACUGUCAGCUUCUCUGAGAGAUUAACA	0.753 ± 0.039
UAGUGACACACCAUCUCUGAGAGAUUUUGA	0.00147 ± 0.0073
UAGACUGUCACGAUCUCUGAGAGAUUUUGA	0.000147 ± 0.036
UAGUGAGUCUGCUUCUCUGAGAGAUAUUGA	0.000514 ± 0.011
UAGUGACAGACCUUGUCUGAGAGAUUAUGA	0.000551 ± 0.016

Sequence	pre-steady-state target cleavage rate
UAGUGACAGACCUUCUCUGAGACGAUUAACA	0.00148 ± 0.0096
UACACUGUCACGAACUCUGAGAGAUUAUGA	0.000139 ± 0.038
AUCACUGUCACCUUCUCUGAGUCAUAUUGA	0.00182 ± 0.005
UAGUGACAGACCUACUCAGAGAGAUUAACA	0.00112 ± 0.0096
UAGACUGUCACCUUGAGUGAGAGAUAUUGA	0.00023 ± 0.024
UAGUGACAGACCUUCAGAGAGAGAUUAUGA	0.000486 ± 0.021
AUCACUGUCACCUUCUCUGAGACUAAUUGA	0.00228 ± 0.0041
UAGUGUGUCACCAACUCUGAGAGAUUAUGA	0.00285 ± 0.0045
UACACUGUCACCUUCUCUGACUCAUAUUGA	0.00103 ± 0.008
UACACUGUCACGUUCUCUGUGAGAUUAACA	0.233 ± 0.014
UAGUGACAGUCCUUCUCUGAGAGUUUAUGA	0.000398 ± 0.019
UACACUGUCACCUUCUCUCUCUCUAAUUGA [g13:g28:cont:t1A]	0.00167 ± 0.0077
AUCACUGUCACCUUGUCUGAGAGAUUUACA	0.799 ± 0.14
UAGUGUGUCACCUUCUCUCUGAGAUUAUGA	0.00134 ± 0.0097
UAGUGACAGUGCUUCUCUCAGAGUUUAACA	0.000658 ± 0.0086
UAGACUGUCACCUUCUCUGAGUCAUUAAGA	0.000677 ± 0.0077
UAGACUGUCUCCUUCUCUGAGAGAUUAACA	0.662 ± 0.04
UAGUGUGUCACCUUGACUGAGAGAUUAAGA	0.0019 ± 0.0058
UAGUGAGUCACCUUCUCUGAGACUAUUUGA	0.00203 ± 0.0065
UAGUGACAGACCUUCUCUGAGUCUUUAUGA	0.000417 ± 0.022
UAGUGUGUCACCUUCUGUGAGAGAUAUUGA	0.0041 ± 0.0043
UAGUGACAGUCCUUGACUGAGAGAUUAACA	0.00119 ± 0.0056
UAGUGACAGUCCAUCUCUGAGACAUUAACA	0.00139 ± 0.0046
UAGUGACUCACCUACUCUGAGAGAUUUUGA	0.000814 ± 0.0072

Sequence	pre-steady-state target cleavage rate
UAGUGACAGUCCUUCUCUGACAGAUUAUCA	0.0004 ± 0.017
UAGUGACAGUGCUACUCAGAGAGAUUAACA	0.000271 ± 0.014
UAGUGACACACCUUCUCUGAGUGAUUUUGA	0.000379 ± 0.016
UAGUGAGUCACCUUCUCUCUCAGAUUAACA	0.0031 ± 0.0046
UAGUGACAGUGCUUGUCUGAGAGUUUAACA	0.0023 ± 0.0047
UAGUCUGUCACCUUCUCUCUCAGAUUAACA	0.00135 ± 0.0067
UACACUGUCUGGUUCUCUGAGAGAUUAUGA	0.00191 ± 0.0056
UAGUGACAGUCCAUCUCUGAGAGAUAAACA	0.00174 ± 0.0048
UAGUGACAGUCCUUCAGUGAGAGAUUAAGA	0.00123 ± 0.0073
UAGUGACAGUCCUUCUCUGAGAGUUAAACA	0.00128 ± 0.0043
UAGUGACAGUGGUUCUCUGACUCAUUAACA	0.000177 ± 0.02
AUCACUGUCACCUUCUCUGAGUCAUUAAGA	0.00223 ± 0.0043
UAGUGUGUCAGGUUCUCUGAGAGAUAUUGA	0.00159 ± 0.0049
UAGUGACAGUGCUUGUCUGAGACAUUAACA	0.000264 ± 0.025
UAGUGACAGAGCUUCUCUGAGUGAUUAACA	0.00306 ± 0.0047
UAGUCUGUCAGGAUCUCUGAGAGAUUUUGA	0.00146 ± 0.006
UAGUGACAGUGGAAGACUGAGACAUUAAGA	0.000134 ± 0.035
UAGUGACAGUGCUUCUCUGAGAGUUUAUCA	0.000471 ± 0.0083
UUCACUGUCAGGUUCUCUGAGAGAUUUUGA	0.00281 ± 0.0037
UAGUGACACACGAACUCUGAGAGAUUAACA	0.000281 ± 0.011
UAGUGACAGUGGAACUCUGAGAAAUUAACA	0.000112 ± 0.048
